Results published in PMC2672617, “Abl Kinase Inhibits the Engulfment of Apopotic Cells in Caenorhabditis elegans” (PLoS Biology, 2009).
Like-named read-outs stand apart in the source and are kept apart here. These are yes or no findings as the source states them, for the method shown. Binding seen in cells or lysates may run through a third protein. For some of these results: A result given as binding can be weak or reduced; the word gives no strength.

By UniProt entry, the sequences of proteins in these tests, tags left out. Where a name states a change or a piece, a line headed by the entry shows the natural chain unless it says otherwise.
UniProt Q10929: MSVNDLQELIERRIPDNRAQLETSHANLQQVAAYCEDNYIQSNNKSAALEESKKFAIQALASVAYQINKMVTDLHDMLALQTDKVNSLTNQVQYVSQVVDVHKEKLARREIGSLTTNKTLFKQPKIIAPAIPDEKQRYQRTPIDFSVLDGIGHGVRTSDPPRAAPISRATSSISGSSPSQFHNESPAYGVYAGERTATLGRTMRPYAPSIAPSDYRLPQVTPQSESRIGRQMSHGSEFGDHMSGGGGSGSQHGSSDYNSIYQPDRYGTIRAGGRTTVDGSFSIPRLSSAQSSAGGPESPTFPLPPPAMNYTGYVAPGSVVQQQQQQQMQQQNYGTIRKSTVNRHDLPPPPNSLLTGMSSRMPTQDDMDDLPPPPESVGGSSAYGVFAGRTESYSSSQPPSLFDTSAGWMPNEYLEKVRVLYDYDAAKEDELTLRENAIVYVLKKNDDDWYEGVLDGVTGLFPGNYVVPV
UniProt P08659: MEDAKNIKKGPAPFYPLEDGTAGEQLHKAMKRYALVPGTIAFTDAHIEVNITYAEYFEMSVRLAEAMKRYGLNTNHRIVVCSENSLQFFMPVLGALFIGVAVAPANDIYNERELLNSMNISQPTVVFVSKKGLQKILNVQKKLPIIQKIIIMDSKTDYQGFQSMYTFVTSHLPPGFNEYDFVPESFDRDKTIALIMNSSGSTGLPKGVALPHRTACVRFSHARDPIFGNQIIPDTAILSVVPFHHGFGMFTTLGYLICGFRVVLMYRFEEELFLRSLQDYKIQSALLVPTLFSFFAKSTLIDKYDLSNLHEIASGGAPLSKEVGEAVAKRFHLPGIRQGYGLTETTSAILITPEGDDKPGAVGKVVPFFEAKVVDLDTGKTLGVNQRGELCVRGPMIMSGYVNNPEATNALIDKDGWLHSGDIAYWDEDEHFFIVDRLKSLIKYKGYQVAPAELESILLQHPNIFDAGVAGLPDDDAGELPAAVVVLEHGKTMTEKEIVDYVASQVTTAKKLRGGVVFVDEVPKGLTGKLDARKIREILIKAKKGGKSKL

What was measured:
Assay in all cases: pull-down; GST, GST-ABI or GST-ABIΔ on glutathione beads incubated with 25 μl of a 100 μl 35S-labelled in vitro transcription/translation reaction; 2 h at 4 °C in PBB2 (25 mM HEPES pH 7.6, 150 mM NaCl, 5 mM MgCl2, 0.1 mM EDTA, 0.1% Tween-20, 0.25% BSA); washes with 300 and 250 mM NaCl; SDS-PAGE, autoradiography, phosphorimager quantitation; only the target purified
[1] = target: GST-ABI-1Δ (N-terminal GST fusion to the product of the abi-1(tm494) allele) (C. elegans) (UniProt Q10929)
[2] = target: GST-ABI-1Δ (N-terminal GST fusion to the product of the abi-1(tm494) allele) (C. elegans) (UniProt Q10929); remark: listed apart in the source
[3] = target: GST (glutathione-S-transferase alone)

| binding [1] | binding [2] | binding [3] | Molecule |
| --- | --- | --- | --- |
| no binding | – | – | Luciferase (control) (from UniProt P08659 1-550) (enzyme) |
| – | no binding | – | ABL-1(606–1,224), C-terminal fragment of C. elegans ABL-1 (domain or fragment, UniProt P03949 606-1224, labeled with 35S in vitro) HSSHHDRDRDRESLHSRNSNPEIPNRSFIRTDDSVSFFNPSTTSKVTSFRAQGPPFPPPPQQNTKPKLLKSVLNSNARHASEEFERNEQDDVVPLAEKNVRKAVTRLGGTMPKGQRIDAYLDSMRRVDSWKESTDADNEGAGSSSLSRTVSNDSLDTLPLPDSMNSSTYVKMHPASGENVFLRQIRSKLKKRSETPELDHIDSDTADETTKSEKSPFGSLNKSSIKYPIKNAPEFSENHSRVSPVPVPPSRNASVSVRPDSKAEDSSDETTKDVGMWGPKHAVTRKIEIVKNDSYPNVEGELKAKIRNLRHVPKEESNTSSQEDLPLDATDNTNDSIIVIPRDEKAKVRQLVTQKVSPLQHHRPFSLQCPNNSTSSAISHSEHADSSETSSLSGVYEERMKPELPRKRSNGDTKVVPVTWIINGEKEPNGMARTKSLRDITSKFEQLGTASTIESKIEEAVPYREHALEKKGTSKRFSMLEGSNELKHVVPPRKNRNQDESGSIDEEPVSKDMIVSLLKVIQKEFVNLFNLASSEITDEKLQQFVIMADNVQKLHSTCSVYAEQISPHSKFRFKELLSQLEIYNRQIKFSHNPRAKPVDDKLKMAFQDCFDQIMRLVDR |
| – | binds | binds weakly | ABL-1(112–611), N-terminal fragment of C. elegans ABL-1 (domain or fragment, UniProt P03949 112-611, looked up, labeled with 35S in vitro, contains the SH3, SH2 and tyrosine kinase domains; Cloned in pDEST14 (Gateway) for expression in vitro; also called N-terminal half of ABL-1; source: in vitro translated (TNT T7 Quick Coupled Transcription/Translation system, Promega)) SSSSSAPLFVALYDFHGVGEEQLSLRKGDQVRILGYNKNNEWCEARLYSTRKNDASNQRRLGEIGWVPSNFIAPYNSLDKYTWYHGKISRSDSEAILGSGITGSFLVRESETSIGQYTISVRHDGRVFHYRINVDNTEKMFITQEVKFRTLGELVHHHSVHADGLICLLMYPASKKDKGRGLFSLSPNAPDEWELDRSEIIMHNKLGGGQYGDVYEGYWKRHDCTIAVKALKEDAMPLHEFLAEAAIMKDLHHKNLVRLLGVCTHEAPFYIITEFMCNGNLLEYLRRTDKSLLPPIILVQMASQIASGMSYLEARHFIHRDLAARNCLVSEHNIVKIADFGLARFMKEDTYTAHAGAKFPIKWTAPEGLAFNTFSSKSDVWAFGVLLWEIATYGMAPYPGVELSNVYGLLENGFRMDGPQGCPPSVYRLMLQCWNWSPSDRPRFRDIHFNLENLISSNSLNDEVQKQLKKNNDKKLESDKRRSNVRERSDSKSRHSSHHD |
